Measured values reported in patent publication US20060003330A1, “Streptococcus pneumoniae pbp2x mini-protein and uses thereof” (COMMISSARIAT A L'ENERGIE ATOMIQUE CENTRE NATIONAL DE LA …, priority 2002, published 2006).
Where two headings read alike, the source gives them in different places. The name of at least one read-out is uncertain. For at least one compound, name, drawing or mass did not settle the structure.

Assays:
mini-PBP2x = biological target: T1, mini-PBP2x (Streptococcus pneumoniae, UniProt P59676, D231G/DEL200-216/DEL233-256/DELINS94-183GG/M385T/S217G/T230G); assay: Hydrolysis kinetics: transpeptidase (hydrolytic) activity of mini-PBP2x on thiol ester substrate analogues; format: biochemical; details: hydrolysis by Mini-PBP2x (strain R6)
T1 construct: made in house; host or cells: E. coli BL21 (DE3), plasmid pET30b-mini-PBP2x
T1 sequence (P59676 with tags, fused parts or gaps DELINS94-183GG/DEL200-216/S217G/T230G/D231G/DEL233-256/M385T): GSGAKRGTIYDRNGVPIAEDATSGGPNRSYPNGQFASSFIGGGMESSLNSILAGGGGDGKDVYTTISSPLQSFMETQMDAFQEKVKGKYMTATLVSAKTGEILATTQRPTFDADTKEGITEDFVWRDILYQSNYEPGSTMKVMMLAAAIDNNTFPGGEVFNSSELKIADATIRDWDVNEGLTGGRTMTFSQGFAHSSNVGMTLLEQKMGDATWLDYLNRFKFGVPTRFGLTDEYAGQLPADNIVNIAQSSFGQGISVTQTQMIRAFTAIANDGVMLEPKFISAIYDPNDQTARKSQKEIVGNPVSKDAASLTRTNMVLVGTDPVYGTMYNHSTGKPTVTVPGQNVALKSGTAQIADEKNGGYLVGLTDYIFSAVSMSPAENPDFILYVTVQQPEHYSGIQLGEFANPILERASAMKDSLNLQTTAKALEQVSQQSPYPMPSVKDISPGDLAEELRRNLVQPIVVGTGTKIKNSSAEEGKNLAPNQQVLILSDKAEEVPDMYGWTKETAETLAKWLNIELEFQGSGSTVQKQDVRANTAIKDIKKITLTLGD

PBP2x* = biological target: T2, PBP2x* (Streptococcus pneumoniae, UniProt P59676); details: hydrolysis by PBP2x*, cited from earlier work
T2 sequence (P59676 49-750): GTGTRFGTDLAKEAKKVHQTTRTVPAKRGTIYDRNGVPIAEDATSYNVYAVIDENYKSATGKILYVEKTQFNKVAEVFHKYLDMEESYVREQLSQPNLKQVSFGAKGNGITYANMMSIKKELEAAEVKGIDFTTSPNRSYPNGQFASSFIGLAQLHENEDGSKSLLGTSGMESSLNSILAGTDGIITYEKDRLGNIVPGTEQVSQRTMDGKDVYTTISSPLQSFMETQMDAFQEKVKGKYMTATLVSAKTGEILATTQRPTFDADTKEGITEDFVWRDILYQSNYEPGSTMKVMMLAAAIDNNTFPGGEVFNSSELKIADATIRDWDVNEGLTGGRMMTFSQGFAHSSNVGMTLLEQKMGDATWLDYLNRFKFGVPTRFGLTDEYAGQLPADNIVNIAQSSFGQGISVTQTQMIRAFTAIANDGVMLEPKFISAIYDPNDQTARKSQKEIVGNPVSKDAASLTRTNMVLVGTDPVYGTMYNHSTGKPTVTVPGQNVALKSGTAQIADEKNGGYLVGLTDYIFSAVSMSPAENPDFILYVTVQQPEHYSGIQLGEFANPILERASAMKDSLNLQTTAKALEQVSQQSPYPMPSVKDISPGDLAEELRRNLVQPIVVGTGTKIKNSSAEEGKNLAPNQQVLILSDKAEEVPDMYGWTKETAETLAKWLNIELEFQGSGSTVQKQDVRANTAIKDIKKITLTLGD

[1] = Jamin et al., Biochem. J., 1993

C[C@@H](NC(=O)c1ccccc1)C(=O)SCC(=O)O [S2d, N-benzoyl-D-alanylmercaptoacetic thiol ester]
kcat/Km (mini-PBP2x): 2 890 ± 400 M^−1 · s^−1 | kcat/Km (PBP2x*; [1]): 5 000 ± 1 400 M^−1 · s^−1 | kcat/Km (PBP2x*; Mouz et al., P.N.A.S., 1998): 2 500 ± 200 M^−1 · s^−1

carboxymethylbenzoylamino-thioacetate thiol ester [S2a]
kcat/Km (mini-PBP2x): 76 ± 3 M⁻¹ s⁻¹ | kcat/Km (PBP2x*; [1]): 610 ± 150 M⁻¹ s⁻¹ | kcat/Km (PBP2x*; Mouz et al., P.N.A.S., 1998): 139 ± 8 M⁻¹ s⁻¹
